{"source": "the supplement of paper PMC12067093", "about": "“Discovery and optimisation of a covalent ligand for TRIM25 and its application to targeted protein ubiquitination” (Chemical Science, 2025)", "compound": "Cc1cc(ccc1-c1ccccc1)C(=O)N1CCCN(CC1)C(=O)CCl [compound 10]", "assay": "probe-labelled cysteine peptide fold change vs DMSO (competition) (log2 fold change); higher = less target engagement (more negative = stronger competition)", "details": "THP-1, incubation time: 4 h", "note": "The list shows a part of the results.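 Also: competitive profiling in live THP-1 cells: cysteine peptides tagged with an iodoacetamide desthiobiotin (IA-DTB) probe, intensity after compound treatment relative to DMSO-treated cells.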", "data": [{"target": "GRHPR_Q9UBQ7_29_AADCEVEQWDSDEPIPAK (UniProt Q9UBQ7)", "values": [{"measurement": "probe-labelled cysteine peptide fold change", "setting": "10 µM", "result": -0.563}, {"measurement": "probe-labelled cysteine peptide fold change", "setting": "50 µM", "result": -0.167}]}, {"target": "GRWD1_Q9BQ67_235_LLTGDCQK (UniProt Q9BQ67)", "values": [{"measurement": "probe-labelled cysteine peptide fold change", "setting": "10 µM", "result": -0.0866}, {"measurement": "probe-labelled cysteine peptide fold change", "setting": "50 µM", "result": -0.0575}]}, {"target": "GRN_P28799_171_VHCCPHGAFCDLVHTR (UniProt P28799)", "values": [{"measurement": "probe-labelled cysteine peptide fold change", "setting": "10 µM", "result": 0.119}, {"measurement": "probe-labelled cysteine peptide fold change", "setting": "50 µM", "result": -0.0901}]}, {"target": "GTF2B_Q00403_37_AGDMICPECGLVVGDR (UniProt Q00403)", "values": [{"measurement": "probe-labelled cysteine peptide fold change", "setting": "10 µM", "result": 0.112}, {"measurement": "probe-labelled cysteine peptide fold change", "setting": "50 µM", "result": 0.0725}]}, {"target": "GTF2H1_P32780_246_DLFAECAK (UniProt P32780)", "values": [{"measurement": "probe-labelled cysteine peptide fold change", "setting": "10 µM", "result": -0.095}, {"measurement": "probe-labelled cysteine peptide fold change", "setting": "50 µM", "result": -0.337}]}, {"target": "GSTCD_Q8NEC7_466_IVDFCSGGGHVGIVLAHMLPSCQVTLIENK (UniProt Q8NEC7)", "values": [{"measurement": "probe-labelled cysteine peptide fold change", "setting": "10 µM", "result": -0.00281}, {"measurement": "probe-labelled cysteine peptide fold change", "setting": "50 µM", "result": -0.325}]}, {"target": "GSTP1_P09211_102_DQQEAALVDMVNDGVEDLRCK (UniProt P09211)", "values": [{"measurement": "probe-labelled cysteine peptide fold change", "setting": "10 µM", "result": 0.0332}, {"measurement": "probe-labelled cysteine peptide fold change", "setting": "50 µM", "result": 1.08}]}, {"target": "HACE1_Q8IYU2_508_IIFDHFHFLLECPELMSR (UniProt Q8IYU2)", "values": [{"measurement": "probe-labelled cysteine peptide fold change", "setting": "10 µM", "result": -0.00126}, {"measurement": "probe-labelled cysteine peptide fold change", "setting": "50 µM", "result": 0.00429}]}, {"target": "GRB2_P62993_32_VLNEECDQNWYK (UniProt P62993)", "values": [{"measurement": "probe-labelled cysteine peptide fold change", "setting": "10 µM", "result": 0.215}, {"measurement": "probe-labelled cysteine peptide fold change", "setting": "50 µM", "result": -0.0382}]}, {"target": "GSK3B_P49841_335_LTPLEACAHSFFDELRDPNVK (UniProt P49841)", "values": [{"measurement": "probe-labelled cysteine peptide fold change", "setting": "10 µM", "result": 0.133}, {"measurement": "probe-labelled cysteine peptide fold change", "setting": "50 µM", "result": 0.0393}]}, {"target": "HAUS7_Q99871_50_DLNCPFLEGLYITEPK (UniProt Q99871)", "values": [{"measurement": "probe-labelled cysteine peptide fold change", "setting": "10 µM", "result": -0.022}, {"measurement": "probe-labelled cysteine peptide fold change", "setting": "50 µM", "result": -0.0793}]}, {"target": "HADHA_P40939_97_PGCFIAGADINMLAACK (UniProt P40939)", "values": [{"measurement": "probe-labelled cysteine peptide fold change", "setting": "10 µM", "result": -0.104}, {"measurement": "probe-labelled cysteine peptide fold change", "setting": "50 µM", "result": 0.273}]}, {"target": "GSPT1_P15170_381_GIEEEEILPGFILCDPNNLCHSGR (UniProt P15170)", "values": [{"measurement": "probe-labelled cysteine peptide fold change", "setting": "10 µM", "result": 0.527}, {"measurement": "probe-labelled cysteine peptide fold change", "setting": "50 µM", "result": 0.422}]}, {"target": "GYG1_P46976_89_LHCWSLTQYSK (UniProt P46976)", "values": [{"measurement": "probe-labelled cysteine peptide fold change", "setting": "10 µM", "result": 0.0736}, {"measurement": "probe-labelled cysteine peptide fold change", "setting": "50 µM", "result": 0.246}]}]}
